No constants are given. Whether binding was seen depends on the method and setting. Some binding calls cover weakened binding; strength is not graded here. For some of these results: Where a sequence is shown, tags or fusion partners need not be part of it.
T1: monkey CD22 protein (ACROBiosystems, SI2-R52Ha) (monkey (rhesus monkey in paragraph 148)) (UniProt H9G1X2)
T1 sequence: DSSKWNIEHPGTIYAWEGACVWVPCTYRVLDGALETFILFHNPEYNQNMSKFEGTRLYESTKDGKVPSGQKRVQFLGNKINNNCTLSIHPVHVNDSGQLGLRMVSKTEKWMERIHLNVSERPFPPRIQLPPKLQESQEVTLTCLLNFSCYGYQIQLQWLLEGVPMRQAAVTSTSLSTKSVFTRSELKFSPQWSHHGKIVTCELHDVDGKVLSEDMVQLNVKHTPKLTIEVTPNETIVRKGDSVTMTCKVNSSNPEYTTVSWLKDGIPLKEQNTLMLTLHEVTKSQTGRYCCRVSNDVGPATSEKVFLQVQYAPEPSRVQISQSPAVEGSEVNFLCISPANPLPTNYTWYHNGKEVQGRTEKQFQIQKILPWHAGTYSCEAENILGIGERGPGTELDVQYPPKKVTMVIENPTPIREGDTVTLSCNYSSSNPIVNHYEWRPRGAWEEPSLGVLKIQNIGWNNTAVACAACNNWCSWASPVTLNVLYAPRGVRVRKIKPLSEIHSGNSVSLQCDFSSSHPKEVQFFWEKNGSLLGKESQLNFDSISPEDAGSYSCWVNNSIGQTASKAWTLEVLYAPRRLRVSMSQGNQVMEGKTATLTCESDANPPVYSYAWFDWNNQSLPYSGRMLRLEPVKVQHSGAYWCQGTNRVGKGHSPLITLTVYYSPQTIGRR

T2: rhesus monkey CD22-ECD-His protein (rhesus monkey) (UniProt H9G1X2)
T2 sequence: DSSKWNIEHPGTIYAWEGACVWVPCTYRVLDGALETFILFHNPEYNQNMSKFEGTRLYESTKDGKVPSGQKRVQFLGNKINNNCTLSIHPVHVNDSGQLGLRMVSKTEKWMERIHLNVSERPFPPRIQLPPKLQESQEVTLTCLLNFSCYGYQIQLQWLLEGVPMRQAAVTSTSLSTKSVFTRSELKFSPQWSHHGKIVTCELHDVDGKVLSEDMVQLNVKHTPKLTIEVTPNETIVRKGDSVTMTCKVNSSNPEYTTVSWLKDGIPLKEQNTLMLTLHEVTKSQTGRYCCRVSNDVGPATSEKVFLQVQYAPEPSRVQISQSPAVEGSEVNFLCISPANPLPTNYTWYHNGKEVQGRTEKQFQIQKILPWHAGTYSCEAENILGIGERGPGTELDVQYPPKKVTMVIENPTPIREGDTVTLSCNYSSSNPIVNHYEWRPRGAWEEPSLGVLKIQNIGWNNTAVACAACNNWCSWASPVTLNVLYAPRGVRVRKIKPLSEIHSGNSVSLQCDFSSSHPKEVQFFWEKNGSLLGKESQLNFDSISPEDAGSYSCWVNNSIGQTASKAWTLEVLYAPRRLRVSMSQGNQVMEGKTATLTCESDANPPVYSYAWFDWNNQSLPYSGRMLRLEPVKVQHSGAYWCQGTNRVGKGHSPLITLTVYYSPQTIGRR


Experiments:
[1] = target: T1, monkey CD22 protein (ACROBiosystems, SI2-R52Ha) (monkey (rhesus monkey in paragraph 148)); experiment: ELISA, coated monkey CD22
[2] = target: T1, monkey CD22 protein (ACROBiosystems, SI2-R52Ha) (monkey (rhesus monkey in paragraph 148)); experiment: ELISA, monkey CD22-ECD-His coated
[3] = target: T2, rhesus monkey CD22-ECD-His protein (rhesus monkey); experiment: SPR (Biacore), antibody captured on Protein A chip, rhesus CD22 in solution

Row | binding [1] | binding [2] | binding [3] | Binder
1 | binds | binds |  | F1.250.16 (antibody, human IgG1, kappa, V domains shown) VH: QVQLQQSGAEQVKPGASVKMSCKASGYTFTTYPIEWMKQNHGESLDWIGNIHPYNDDTEYNEKFKGKATLTVEKSSNTVFLELSRLTSDDSAVYYCVRGDYYNSRYWYFDVWGTGTTVTVSS VL: DIVMTQSQKFMSTTVGDRVSITCKAGQNVRTAVAWYQQKPGQSPKLLIYSASTRYIGVPERFTGSGSGTDFTLTITNMQSEDLADYFCQQYSSFPLTFGTGTKLELKR
2 | binds | binds |  | F1.216.2 (antibody, human IgG1, kappa, V domains shown) VH: QVQLQQSGPEVVRPGASVKISCKASGYAFSSSWMNWMKQRPGKALEWIGRIYPGDGDTNYSGEFKVKATLTADKSSSTAYMQLSSLTSEDSAVYFCAREGSYYSNPWYFDYWGQGTTLTVSS VL: DVLVTQTPLSLPVSLGDQASISCRSSQSIVQSNGDTYLEWYLQKPGQSPKLLIYKVSNRFSGVPDRFSGSGSGTDFTLKISRVEAEDLGVYYCFQGSHVPFTFGSGTKLEIKR
3 | binds | binds |  | F1.267.9 (antibody, human IgG1, kappa, V domains shown) VH: EVQLQQSGPVLVKPGASVKMSCKASGYTFTDFYMNWAKQSHGKSLEWVGVINPYNGGINYNQKFKGKATLTVDKSSSTAYMEFNSLTSEDSAVYYCARRMEYHAMDYWGQGTSVTVSS VL: DIVLTQSPASLAVSLGQRATISCRASESVDNYGFDFIHWYQQKPGQPPKLLIYRASNLESGIPARFSGSGSRPDFTLTINPVETDDVATYYCQQSIKDPWTFGGGTKLEIKR
4 | binds | binds |  | F2.151.13 (antibody, human IgG1, lambda, V domains shown) VH: QVHLQQPGTELMKPGASVKLSCKATGYTFRDYWLEWVKQRPGHGLEWIGEILPGSGNAYYNEKFKGKATFTADTSSNTAYMQLSSLTTEDSAIYYCARVYSNWYFDAWGKGTTVTVSS VL: QAVVTQESALTTSPGETVTLTCRSSTGAVTTSNYANWVQEKPDHLFTGLIGGTNNQAPGVPARFSGSLIGDKAALTISGAQTEDEAIYFCALWFSNHWVFGGGTKLTVLG
5 |  | binds |  | HA22-hIgG1 (antibody, V domains shown) VH: EVQLVESGGGLVKPGGSLKLSCAASGFAFSIYDMSWVRQTPEKCLEWVAYISSGGGTTYYPDTVKGRFTISRDNAKNTLYLQMSSLKSEDTAMYYCARHSGYGTHWGVLFAYWGQGTLVTVSA VL: DIQMTQTTSSLSASLGDRVTISCRASQDISNYLNWYQQKPDGTVKLLIYYTSILHSGVPSRFSGSGSGTDYSLTISNLEQEDFATYFCQQGNTLPWTFGCGTKLEIKR

Continued, binder first:

Row | Binder | binding [1] | binding [2] | binding [3]
6 | F1.172.13 (antibody, human IgG1, kappa, V domains shown) VH: QVTLKESGPGILQSSQTLSLTCSFSGFSLSTSGMGVSWIRQPSGKGLEWLAHIYWDDDKRYNPSLKSRLTISKDTSRNQVFLKITSVDTADTATYYCARAPPPNWDEYYFDYWGQGTTLTVSS VL: DIQMTQSPASLSASVGETVTITCRASGNIHNSLAWYQQKQGKSPQLLVHNAKTLADGVPSRFSGSGSGTQYSLKINSLQPEDFGSYYCQHFWSTPPFGGGTKLEIKR | binds | binds | 
7 | F2.173.9 (antibody, human IgG1, lambda, V domains shown) VH: EVQLVESGGDLVKPGESLKLSCEASGFTFSNYAMSWVRQTPDRRLEWVATISSIGSFTYYSDSVKGRFTISRDNVKSTLHLQMNNLKSGDTAIYFCARLGVYFDSWGQGTTLTVSS VL: QLVLTQSSSASFSLGASAKLTCTLSSQHSTYTIEWYQQQPHKPPKFVMEIKKDGSHYTGDGIPDRFSGSSSGADRYLSISNIQPEDETIYICGVSDMIKDQFVYVFGGGTKVTVLG | binds | binds | 
8 | F2.55.1 (antibody, human IgG1, lambda, V domains shown) VH: QVTLKESGPGILQPSQTLSLTCSFSGFSLSTFPLGVGWIRQPSGKGLEWLAHVWWNDDDYYNPALKSRLTISKDTSNTRVFLSVASVDTAETATYYCARLNWDRWYFDVWGTGTTVTVSS VL: QLVLTQSSSASFSLGASAKLTCTLSSQHSAYTVEWYQQQPLKPPKYVMELKKDGSHSTGDGIPDRFSGSSSGADRYLSISNIQPEDEAIYICGVGDTVKEQFVFGGGTKVTVLG | binds | binds | binds
9 | F1.224.1 (antibody, human IgG1, kappa, V domains shown) VH: EVLLHQSGPELVKPGASVKISCKASGYTFTDFNMDWVRQRHGQSLEWIGDVNPNNGGTIYNQKFKGKATLTVDKSSSTVYMDLRSLTSDDTAVYYCVRLGTSDYGEAWFISWGQGTVVTVSA VL: DIVLTQSPASLAVSLGQRATISCRASQSVSTPRYSFMHWYQQKPGQPPKLLIKYASNLESGFPARFTGSGSGTDFTLNIHPVEEEDTAAYYCQQSWAIPWTFGGGTKLEIKR | binds | binds | 
10 | F1.17.1 (antibody, human IgG1, kappa, V domains shown) VH: QVQLKESGPGLVAPSQSLSITCTVSGFSLSRYTVHWVRQPPGKGLEWLGMIWGGGSTDYNSALKSRLSISKDNSKSQVFLKMNSLQTDDTAMYYCARPHDFDAGGFAYWGQGTLVTVSA VL: QIVLTQSPAILSTSPGEKVTMTCSASSRVNYMYWYQQKPGSSPRLLIYDTSNLASGVPVRFSGSGSGTSYSLTISRMEAEDAATYYCQQWTSYPLTFGAGTKLELKR | binds | binds | 
11 | F1.192.1 (antibody, human IgG1, kappa, V domains shown) VH: AVQLQQSGVELVRPGASVKLSCTGSDFNIKEDYIHWVKQRPEQGLEWIGWIDPENGDTEYASKFQGKATITADTSSNTAYLQLSSLTSEDTAVYYCATYGSLDYWGQGTTLTVSS VL: DIKMTQSPSSMYAFLGERVTITCKASQGINSFLTWFQQKPGKSPKTLIYRANRLVDGVPSRFSGSGSGQDYSLTISSLEYEDVGIYYCLQYDEFPRTFGGGTKLEIKR | binds | binds | 
12 | F1.105.11 (antibody, human IgG1, kappa, V domains shown) VH: EVQLQQSGPVLVKPGASVKMSCKASGYTFSDYFMNWVKQSHGKSLEWIGIINSYSGGTSYNQKFKGKATLTVDKSSSTAYMELNSLTSEDSAVYYCARWMDYWGQGTSVTVSS VL: DVQITQSPSYLAASPGETITINCRTSESISKHLAWYQEKPGKTNKLLIYSGSTLQSGIPSRFSGSGSGTDFTLTISSLEPEDFAMYYCQQHNEYPWTFGGGTKLEIKR | binds | binds | 
13 | F1.200.11 (antibody, human IgG1, kappa, V domains shown) VH: QNQLVQSGPELKKPGETVKISCKASGYTFTTAGMQWVQKMPGKGFKWIGWINTLSGEPKYAEDFKGRFAFSLETSATTAYLQISNLKNEDTATYFCARAYYSNLYWYFDVWGTGTTVTVSS VL: DIVMTQSQKFMSTTVGDRVTITCKASQNVVTAVAWYQQKPGQSPKVLIYSASNRYSGVPDRFTGSGSGTDFTLTISNMHSEDLANYFCHQYSSYPFTFGSGTKLEIKR | binds | binds | 
14 | F1.120.15 (antibody, human IgG1, kappa, V domains shown) VH: QVQLQQSGPELVKPGASVKISCKASGNAFSNSWMNWVKQRPGKGLEWIGRVYSEDGDTQYNGKFRDKATLTADRSTSTAYMQLSSLTSEDSAVYFCARWLIYYGTYGAMDYWGQGTSVTVSS VL: DIQMTQTTSSLSASLGDRVTISCRASQDINNYLNWYHQKPDGTVKLLIYFTSRPYSGVPSRFSGSGSGTDYSLTISNLEQEDIATYFCQQGNTLPWTFGGGTKLEIKR | binds | binds | 
